According to PMC4731787, “Structural basis for the recognition of two consecutive mutually interacting DPF motifs by the SGIP1 μ homology domain” (Scientific Reports, 2016):
Results are given in words; binding and its absence hold for the method and conditions named. For part of these data: Where a sequence is shown, tags or fusion partners need not be part of it. Where no end group is shown, it is not given here. GST = glutathione S-transferase fusion tag

T1: SGIP1 μHD, Asn670 replaced with Asp (human) (UniProt Q9BQI5)
T1 sequence: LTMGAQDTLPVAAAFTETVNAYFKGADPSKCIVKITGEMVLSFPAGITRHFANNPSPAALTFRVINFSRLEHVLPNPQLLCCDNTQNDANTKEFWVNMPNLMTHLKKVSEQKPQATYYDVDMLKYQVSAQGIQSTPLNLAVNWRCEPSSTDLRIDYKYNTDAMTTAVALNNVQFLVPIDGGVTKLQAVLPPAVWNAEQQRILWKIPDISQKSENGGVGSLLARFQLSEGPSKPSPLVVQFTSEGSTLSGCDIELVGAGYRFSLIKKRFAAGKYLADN

T2: SGIP1 μHD, Ala563 replaced with Glu (human) (UniProt Q9BQI5)
T2 sequence: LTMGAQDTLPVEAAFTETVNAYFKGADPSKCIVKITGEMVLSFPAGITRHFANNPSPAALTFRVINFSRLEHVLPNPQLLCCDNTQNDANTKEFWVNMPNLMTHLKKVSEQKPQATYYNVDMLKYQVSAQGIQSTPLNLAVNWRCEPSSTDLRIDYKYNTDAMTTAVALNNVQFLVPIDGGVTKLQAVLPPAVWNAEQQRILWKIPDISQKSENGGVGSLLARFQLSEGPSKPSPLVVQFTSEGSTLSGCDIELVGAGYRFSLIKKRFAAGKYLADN

T3: SGIP1 μHD, Ala565 replaced with Glu (human) (UniProt Q9BQI5)
T3 sequence: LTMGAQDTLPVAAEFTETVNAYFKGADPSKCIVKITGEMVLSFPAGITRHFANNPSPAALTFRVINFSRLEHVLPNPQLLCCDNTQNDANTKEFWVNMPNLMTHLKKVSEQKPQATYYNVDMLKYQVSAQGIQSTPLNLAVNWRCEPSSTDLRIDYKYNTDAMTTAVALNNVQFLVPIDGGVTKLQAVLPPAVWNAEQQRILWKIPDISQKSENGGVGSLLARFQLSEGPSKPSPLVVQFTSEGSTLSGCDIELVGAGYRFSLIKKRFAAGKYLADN


How the values were obtained:
Test in all cases: ITC; VP-ITC, 25 °C, 50 mM Tris-HCl pH 8.0, 50 mM NaCl; for the majority the μHD (SGIP1, its mutants or FCHo1) in the cell, titrated with Eps15 fragments or peptides, for others the reverse (Supplementary Table 2); repeated twice, global fit with SEDPHAT, single-site or two-site model; both purified
[1] = target: T1, SGIP1 μHD, Asn670 replaced with Asp (human)
[2] = target: T2, SGIP1 μHD, Ala563 replaced with Glu (human)
[3] = target: T3, SGIP1 μHD, Ala565 replaced with Glu (human)

binding [1] | binding [2] | binding [3] | Binder
no binding | – | – | YDPFGGDPFKG (N-terminal acetyl group; C-terminal amide group) [Eps15-640–649]
– | no binding | no binding | {GST}-SDPFKDDPFGKIDPFGGDPFKGSDPFA (domain or fragment, human, source: E. coli, purified (Glutathione Sepharose 4B, glutathione elution, Superdex 200); not shown: GST, N-terminal, kept) [GST-Eps15-628–654]
